Laboratory results: PubChem BioAssay AID540303 (National Center for Advancing Translational Sciences (NCATS), 2011)
Hit rate of the full screen: of about 330,000 compounds, about 1,000 (0.3%) were called active. The inconclusive results got no clear call from the source; some entries with a clear call stand among them for comparison. Calls follow the shape of the dose curve; as a rule, active = well fitted inhibition curve with a large enough effect; inconclusive = small, poorly fitted or top-dose-only effect; inactive = no such curve, though single readings can be large or run the other way; tested in mouse RAW 264.7 cells. Potencies beside an inconclusive call are fits to weak or partial responses and may not hold up.

Assay: qHTS for Inhibitors of Cell Surface uPA Generation; also: nearly all actives have a fitted effect of over 55% in size
Details: cell surface uPA generation assay; series mostly up to 38.3 µM; activity change, negative = inhibition: at the top concentration
How it was run: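 Murine RAW 264.7 cells are treated for 24 h with compound up to 38.3 uM final. Cell ATP, measured by ATP-Lite, remains high if blocking the uPA cascade prevents LF from reaching the cytoplasm.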
% is scaled to controls: 0 for no effect and ±100 for the full control effect; potency is read from the fitted curve at half-maximal effect.

Structure (SMILES)	Potency	activity change, negative = inhibition
O=C1C(=O)N(c2ccccn2)C(c2ccc(Br)cc2)/C1=C(/O)c1ccc(Br)cc1 (stereo unspecified)	inconclusive: 2 µM [inhibitor, partial curve, poor fit]	
COc1ccc(-n2nc([N+](=O)[O-])c(=NCCc3ccccc3)n2O)cc1	active: 10 µM	
O=C(c1ccc(-c2cc(Cl)ccc2Cl)o1)N1CCOCC1		inactive: -0.602%
Cc1cccc(C)c1N1CCN(CCn2c(=S)[nH]c3ccccc3c2=O)CC1	inconclusive: 3.16 µM [inhibitor, partial curve, poor fit]	
Cc1cc(NC(=O)c2ccc(C)c(C)c2)no1	inconclusive: 8.91 µM [inhibitor, partial curve, poor fit]	
CN(CC1CCOCC1)C(=O)CC1C(=O)NCCN1Cc1ccc(Cl)c(F)c1 (stereo unspecified)		inactive: -1.54%
CCOc1ccc(C(=O)Nc2nc3ccccc3[nH]2)cc1OCC		inactive: -26.2%
O=C(O)C1Nc2ccc(Br)cc2C2C=CCC12 (stereo unspecified)		inactive: -5.26%
O=C1/C(=C/c2ccc(F)cc2)SC(=S)N1CCCC(=O)N1CCCCC1CCO (stereo unspecified)	inconclusive: 5.62 µM [inhibitor, single point]	
COc1ccc(-c2[nH]c(-c3cccc(OC)c3)nc2SCC(=O)NC2CCCC2)cc1	inconclusive: 12.6 µM [inhibitor, single point]	
COC(=O)c1c(C)oc(C)c1S(=O)(=O)NCc1ccco1	inconclusive: 1.78 µM [inhibitor, full curve, poor fit]	
Cc1cc(C(=O)Cn2nnc(-c3ccc(Cl)cc3)n2)c(C)n1-c1ccccc1		inactive: 0.678%
CN1CCN(c2ccc(S(=O)(=O)N3CCCCC3)cc2NC(=O)COc2cccc(Cl)c2)CC1	inconclusive: 11.2 µM [inhibitor, partial curve, poor fit]	
O=C(Oc1ccc(C(=S)N2CCOCC2)cc1)c1ccccc1F	inconclusive: 12.6 µM [inhibitor, single point]	
O=c1ccc(/C=C/c2ccccc2)nn1Cc1ccccc1Cl		inactive: 9.31%
COc1cc(/C=C2/SC(=O)NC2=O)ccc1OCc1ccccc1	inconclusive: 28.2 µM [inhibitor, single point]	
CN(C)c1ccc(-c2ccc([C@H]3[C@@H]4C=CCC[C@@]4(C)C(=O)N3Cc3ccccc3)c(F)c2)cc1	inconclusive: 28.2 µM [inhibitor, single point]	
O=C(O)c1ccc(-c2nc(-c3cccc(C(F)(F)F)c3)cs2)cc1		inactive: 9.15%
COc1ccc(/C=N/NC(=O)c2cc(-c3ccccc3)nc3ccccc23)c(OC)c1		inactive: -8.96%
CC(=O)c1cccc(NS(=O)(=O)c2ccc(NC(=O)N3CCCCC3)cc2)c1	inconclusive: 12.6 µM [inhibitor, single point]	
CC1=C(C(=O)Nc2ccccc2F)C(c2ccsc2)C2=C(CC(C)(C)CC2=O)N1 (stereo unspecified)	inconclusive: 7.08 µM [inhibitor, partial curve, poor fit]	
O=C(/C=C\Nc1ccccc1Br)c1ccc2c(c1)OCO2		inactive: -20.7%
CCC(=O)N1c2ccc(S(=O)(=O)N3CCN(c4ccccc4Cl)CC3)cc2CC1C (stereo unspecified)		inactive: -14.8%
C=CCN(Cc1cc(OC)ccc1OC)C(=O)c1cc2ccc(OC)cc2[nH]1	inconclusive: 12.6 µM [inhibitor, single point]	

Taken from above:
activity change, negative = inhibition, Cc1cc(C(=O)Cn2nnc(-c3ccc(Cl)cc3)n2)c(C)n1-c1ccccc1 is entered as inactive: 0.678%
Potency, CN1CCN(c2ccc(S(=O)(=O)N3CCCCC3)cc2NC(=O)COc2cccc(Cl)c2)CC1 is entered as inconclusive: 11.2 µM [inhibitor, partial curve, poor fit]

Carrying on:

Structure (SMILES)	Potency	activity change, negative = inhibition
S=C(NCC1CCCO1)Nc1ccc(Nc2ccccc2)cc1 (stereo unspecified)		inactive: -1.66%
c1cc2c(cc1-c1cnc3n1CCC3)OCCO2	inconclusive: 6.31 µM [inhibitor, single point]	
Cc1cccc(N2CCN(C(=O)c3ccnn3C)CC2)c1C		inactive: 6.73%
COc1cc(/C=C2\N=C(c3ccccc3)OC2=O)ccc1OC(C)=O	inconclusive: 20 µM [inhibitor, partial curve, poor fit]	
O=[N+]([O-])c1cnc(Sc2ccncn2)s1	active: 2.82 µM	
COc1ccc2nc(N/C(N)=N/C(=S)Nc3c(C)cccc3C)nc(C)c2c1	inconclusive: 10 µM [inhibitor, partial curve, poor fit]	
CCn1c(-c2ccc(OC)c(OC)c2)n[nH]c1=S		inactive: 2.8%
CC(C)n1c(N2CCN(C(=O)NCc3ccccc3)CC2)nc2ccccc21		inactive: 2.26%
O=c1cc(-c2ccccc2)[nH]c2ccccc12		inactive: -12.7%
COC(=O)N/N=C/c1cc(N=Nc2ccccc2Cl)ccc1O	inconclusive: 5.01 µM [inhibitor, single point]	
CCOc1cccc(CN2CCCC(N3CCN(c4cccc(Cl)c4)CC3)C2)c1O (stereo unspecified)		inactive: -8.32%
C=CCCC(=O)Nc1nc(C)c(-c2csc(Nc3cc(OC)ccc3OC)n2)s1	inconclusive: 2.51 µM [inhibitor, full curve, poor fit]	
O=C(CSc1ccc2ccccc2n1)N/N=C/c1ccccc1O	inconclusive: 12.6 µM [inhibitor, single point]	
C[C@@H]1[C@@H](Sc2ccccc2)CC(=O)O[C@@H]1c1ccc(-c2ccccc2)cc1	inconclusive: 5.01 µM [inhibitor, partial curve, poor fit]	
CCOC(=O)COc1ccc(C(=O)c2ccccc2)c(O)c1		inactive: 2.41%
COc1ccc(CCNS(=O)(=O)c2cn(C)cn2)cc1OC	inconclusive: 0.794 µM [inhibitor, partial curve, poor fit]	
O=C(CSc1ccc2nnc(-c3ccccn3)n2n1)Nc1ccc(F)cc1F	inconclusive: 2.24 µM [inhibitor, full curve, poor fit]	
COc1ccc(N=C2C(=Nc3ccc(OC)cc3)N(c3ccc(N(C)C)cc3)C(=S)N2c2ccc(OC)cc2)cc1	inconclusive: 0.0891 µM [inhibitor, full curve, poor fit]	
COC(=O)Cc1ccc(NC(=O)c2ccc(C(C)(C)C)cc2)cc1		inactive: -8.52%
COc1ccc(S(=O)(=O)Nc2cccc3c2O[C@H](CN(C)Cc2ccc(Oc4ccccc4)cc2)[C@@H](C)CN([C@H](C)CO)C3=O)cc1	inconclusive: 7.94 µM [inhibitor, single point]	
C[C@H](CO)N1C[C@H](C)[C@@H](CN(C)C(=O)Nc2ccc3c(c2)OCO3)Oc2c(NC(=O)c3ccncc3)cccc2C1=O		inactive: 7.11%
Cc1cc(=O)n(C)c2ccc(S(=O)(=O)N3CCOCC3)cc12		inactive: 1.45%
Cc1ccc(C(=O)OCC(=O)c2c(N)n(C)c(=O)n(C)c2=O)cc1S(=O)(=O)N1CCOCC1	inconclusive: 0.316 µM [inhibitor, full curve, poor fit]	
O=C(OCCCOC(=O)c1ccc([N+](=O)[O-])o1)c1ccc([N+](=O)[O-])o1	inconclusive: 1 µM [inhibitor, partial curve, poor fit]	

Structure (SMILES)	Potency	activity change, negative = inhibition
Cc1c(Cl)cccc1NC(=O)CCC(=O)c1cccs1	inconclusive: 0.316 µM [inhibitor, full curve, poor fit]	
CCn1nc(C)c(CN2CCC(n3nccc3NC(=O)c3ccccc3OC)CC2)c1C		inactive: 13.3%
COc1cccc(C2=CC(c3ccccc3)n3nnnc3N2)c1 (stereo unspecified)	inconclusive: 2.82 µM [inhibitor, partial curve, poor fit]	
COc1ccc(CN(C)C(=O)COc2cccc(-n3cnnn3)c2)cc1OC	inconclusive: 0.355 µM [inhibitor, full curve, poor fit]	
O=S(=O)(NC(=S)NC1CCCCC1)c1ccc(Br)cc1		inactive: 8%
c1ccn(-c2ccc(-c3ccn[nH]3)cc2)c1	inconclusive: 35.5 µM [inhibitor, partial curve, poor fit]	
CCN(CC)S(=O)(=O)c1cccc(-c2n[nH]c(=S)n2C)c1		inactive: -2.45%
CCC(C)(C)C1CCC(NC(=O)c2ccc(S(=O)(=O)N3CCOCC3)cc2)CC1 (stereo unspecified)	inconclusive: 8.91 µM [inhibitor, partial curve, poor fit]	
CN(C)CC(CCCCC(CN(C)C)C(=O)c1ccccc1)C(=O)c1ccccc1 (stereo unspecified)	active: 10 µM	
O=C(NCCCN1CCCC1=O)C1CCN(S(=O)(=O)c2c(Cl)cccc2Cl)CC1		inactive: -2.3%
COc1cccc(C(=O)NC2CC3CCCC(C2)N3Cc2ccc(C)cc2)c1 (stereo unspecified)		inactive: 29.8%
Cc1ccnc(NC(=O)c2cc3ccccc3o2)c1	active: 2 µM	
O=C(Nc1ccccc1C(=O)NCc1ccccc1)C1=CSCCO1	inconclusive: 12.6 µM [inhibitor, single point]	
Cc1cccc2sc(NC(=O)c3ccc(NS(=O)(=O)c4cccs4)cc3)nc12		inactive: 6.14%
COc1cccc(NC(=O)c2sc3nc(N4CCOCC4)c4c(c3c2N)CCCC4)c1	inconclusive: 12.6 µM [inhibitor, single point]	
CCn1c(=S)sc2nc(C)sc21	inconclusive: 1.26 µM [inhibitor, full curve, poor fit]	
COc1ccc(CNC(=O)Cn2nc(C)c3c(C)n(-c4ccc(C)cc4)nc3c2=O)cc1OC	inconclusive: 10 µM [inhibitor, single point]	
Cc1ccc(NC(=S)NNC(=O)CSc2nnc(-c3ccc(Cl)cc3)n2C2CCCCC2)cc1		inactive: 1.28%
O=C(NCCN1CCOCC1)c1ccc(Cl)c(S(=O)(=O)N2CCCCCC2)c1		inactive: 0.932%
Cc1ccc(CNC(=O)c2cc3c(-c4ccc(Cl)cc4)nn(C)c3s2)o1	inconclusive: 25.1 µM [inhibitor, single point]	
CCCCOC(=O)Nc1ccc(C(=O)OCCC)cc1		inactive: -0.986%
COc1c(O[C@@H]2O[C@H](CO)[C@@H](O)[C@H](O)[C@H]2O)cc2c(c1OC)-c1ccc(SC)c(=O)cc1C(NC(C)=O)CC2 (stereo partly specified)	inconclusive: 12.6 µM [inhibitor, single point]	
C=CCN(CC=C)S(=O)(=O)c1ccc(C(=O)Nc2nnc(CSC)o2)cc1	inconclusive: 12.6 µM [inhibitor, single point]	
